These are yes or no findings as the source states them, for the method shown. Some binding calls cover weakened binding; strength is not graded here.
Legend:
integrin αvβ8 ectodomain = integrin αvβ8 ectodomain (UniProt P06756); assay: fluorescence polarisation; competition: binder titrated against 10 nM FITC-cyclic-… or FITC-proTGFβ3 peptide bound to soluble integrin ectodomain; HEPES pH 7.5, NaCl, MgCl2, CaCl2, 0.5 mg/mL BSA; 2 h at room temperature; both purified
integrin αvβ6 ectodomain = integrin αvβ6 ectodomain (UniProt P06756); assay: as above

Sequences of proteins named here, by UniProt entry; tags and fusion partners are left off. A change or cut given only in a name is not applied to a line headed by its entry.
UniProt P06756: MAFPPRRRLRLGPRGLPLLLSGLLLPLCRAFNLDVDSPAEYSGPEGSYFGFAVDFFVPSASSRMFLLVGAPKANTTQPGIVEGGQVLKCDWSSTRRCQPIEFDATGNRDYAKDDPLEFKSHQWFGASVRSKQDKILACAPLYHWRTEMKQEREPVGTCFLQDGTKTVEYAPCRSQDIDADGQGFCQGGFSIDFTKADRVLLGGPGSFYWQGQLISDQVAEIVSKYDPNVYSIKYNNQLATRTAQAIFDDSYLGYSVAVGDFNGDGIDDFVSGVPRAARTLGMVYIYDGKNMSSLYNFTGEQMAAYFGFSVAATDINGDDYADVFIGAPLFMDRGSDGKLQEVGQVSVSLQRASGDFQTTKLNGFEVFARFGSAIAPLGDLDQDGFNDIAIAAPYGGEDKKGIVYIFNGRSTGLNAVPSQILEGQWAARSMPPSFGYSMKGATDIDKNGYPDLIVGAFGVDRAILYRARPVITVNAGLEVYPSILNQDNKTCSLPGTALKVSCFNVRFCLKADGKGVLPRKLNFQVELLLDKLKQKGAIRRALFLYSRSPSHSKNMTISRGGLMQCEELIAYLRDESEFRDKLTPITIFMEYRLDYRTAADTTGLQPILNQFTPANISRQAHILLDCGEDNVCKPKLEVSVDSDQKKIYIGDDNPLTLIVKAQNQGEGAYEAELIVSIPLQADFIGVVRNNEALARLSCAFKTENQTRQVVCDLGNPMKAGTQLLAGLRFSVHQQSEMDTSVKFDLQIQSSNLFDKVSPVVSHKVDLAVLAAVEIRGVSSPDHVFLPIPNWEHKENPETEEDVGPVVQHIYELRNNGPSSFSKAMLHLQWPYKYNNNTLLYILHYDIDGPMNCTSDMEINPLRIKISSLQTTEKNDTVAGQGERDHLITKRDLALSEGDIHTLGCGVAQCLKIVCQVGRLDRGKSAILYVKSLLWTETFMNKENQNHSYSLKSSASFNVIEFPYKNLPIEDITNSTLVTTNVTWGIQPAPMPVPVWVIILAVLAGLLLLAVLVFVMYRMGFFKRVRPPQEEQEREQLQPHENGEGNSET

binding (integrin αvβ8 ectodomain): binds
binding (integrin αvβ6 ectodomain): binds
B1: FITC-proTGFβ3 peptide (FITC labeled aminocaproic acid-… peptide) (peptide)
peptide: GRGDLGRLKK
modifications: FITC labeled aminocaproic acid

— paper PMC12392869
